Values from PubChem BioAssay AID1259308 (NCATS, 2017)
Assay: 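Candidate targets for better recombinant protein yield in mammalian cells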 (primary screen). System: human HEK293 embryonic kidney cells stably expressing firefly luciferase (HEK-CMV-Luc2-Hygro). Reagents: single siRNA against human genes, 0.8 pmol siRNA per well. Timing: 72 h. Read-out: 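Reporter luminescence and viable-cell signal on separate replicate plates, given as percent of non-targeting control and median/MAD z-scores, plus per-cell luciferase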. Reading the numbers: total luciferase, z-score: higher = more reporter protein produced. Hit rule: 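Active when the median/MAD z-score for overall luciferase is greater than 3; a gene was taken forward for validation with new siRNAs if at least two of its three siRNAs passed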. Calls: active = raised luciferase; inactive = no rise.
In all, the deposit lists about 59,000 reagents; this is an unselected part. About 1,510 of all reagents (2.6%) were called active. 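Calls use total luciferase alone and ignore viability, so some active siRNAs may act by altering cell number.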 The numbers tell different reagents against one gene apart. Further read-outs or replicates are left out here.

What did the screen give for MATN3 #1?
total luciferase, z-score: 0.53; outcome: inactive

For MATN3 #2, what was measured?
total luciferase, z-score: -0.57; outcome: inactive

What is on record for MATN3 #3?
total luciferase, z-score: 0.122; outcome: inactive

For APOBR #1, how do the results read?
total luciferase, z-score: 3.31; outcome: active

Which result is listed for APOBR #2?
total luciferase, z-score: -1.25; outcome: inactive

What did the screen give for APOBR #3?
total luciferase, z-score: 0.633; outcome: inactive

How did the screen score ZRANB3 #1?
total luciferase, z-score: 0.906; outcome: inactive

What is on record for ZRANB3 #2?
total luciferase, z-score: -0.197; outcome: inactive

With ZRANB3 #3, what does the deposit list?
total luciferase, z-score: -0.424; outcome: inactive

With JAM3 #1, how do the results read?
total luciferase, z-score: 1.55; outcome: inactive

Which result is listed for JAM3 #2?
total luciferase, z-score: -0.831; outcome: inactive

What did the screen give for JAM3 #3?
total luciferase, z-score: -1.68; outcome: inactive

Entries listed so far with an active call:
APOBR #1 | total luciferase, z-score: 3.31; outcome: active

Further reagents follow.
What is on record for GMDS #1?
total luciferase, z-score: 0.0898; outcome: inactive

With GMDS #2, how do the results read?
total luciferase, z-score: 3.37; outcome: active

For GMDS #3, how do the results read?
total luciferase, z-score: 2.5; outcome: inactive

What is on record for SETD5 #1?
total luciferase, z-score: 1.48; outcome: inactive

For SETD5 #2, what does the deposit list?
total luciferase, z-score: 1.11; outcome: inactive

Which result is listed for SETD5 #3?
total luciferase, z-score: -0.3; outcome: inactive

With SNRK #1, how do the results read?
total luciferase, z-score: 0.0395; outcome: inactive

How did the screen score SNRK #2?
total luciferase, z-score: -1.3; outcome: inactive

With SNRK #3, what was measured?
total luciferase, z-score: 1.41; outcome: inactive
